Measurements reported in PubChem BioAssay AID743454 (Peter MacCallum Cancer Centre, 2014).

Aim: 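Search for knock-downs that restore vorinostat killing in resistant colon cancer cells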 (primary screen)
Cell system: human HCT116-VR colon cancer cells, selected for vorinostat resistance
Reagents: siRNA pool against human genes, 40 nM siRNA pool
Duration: vorinostat for 24 h, read-out about 72 h after transfection
Treatment: vorinostat at 2.5 µM final
Read-out: 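Two measures, CellTiter-Fluor viability and luminescent caspase 3/7 activity, each as fold change against same-plate mock wells, mean of duplicates, then screen-wide robust z-score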
Direction: viability robust z-score: higher = more viable cells than screen typical; caspase robust z-score: higher = more caspase 3/7 activity than screen typical
Rule for the call: 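Hits are knock-downs in viability class RV1/RV2 or caspase class CA1/CA2, excluding ones that killed cells in the no-drug cell-count arm; hits then retested with single siRNAs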
In all, the deposit lists about 18,000 reagents; shown is an unselected part. Of all reagents, 450 (2.5%) got an active call. 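Single biological run; no consistent viability z cut-off exists, so the class columns, not z-scores, define the calls.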 No sequences are given here.

For SRSF4 (serine and arginine rich splicing factor 4) the deposit lists viability hit class no change; caspase hit class no change; viability robust z-score 0.46; caspase robust z-score -0.86; inactive.
For ATP6V0E1 (ATPase H+ transporting V0 subunit e1) the deposit lists viability hit class no change; caspase hit class no change; viability robust z-score -0.58; caspase robust z-score -1.37; inactive.
CDC50A (cell division cycle 50 P4-ATPase accessory subunit A) showed viability hit class no change; caspase hit class no change; viability robust z-score 0.4; caspase robust z-score 0.69; inactive.
With knock-down of HSPB2 (heat shock protein family B (small) member 2), the record shows viability hit class no change; caspase hit class no change; viability robust z-score -0.4; caspase robust z-score -0.5; inactive.
After knock-down of PRR21 (proline rich 21), the screen gave viability hit class no change; caspase hit class no change; viability robust z-score -0.05; caspase robust z-score 1.87; inactive.
For SH3PXD2B (SH3 and PX domains 2B), the entry reads viability hit class no change; caspase hit class no change; viability robust z-score 1.49; caspase robust z-score -0.16; inactive.
CCDC70 (coiled-coil domain containing 70) scored viability hit class no change; caspase hit class no change; viability robust z-score 0.55; caspase robust z-score 1.3; inactive.
QSOX2 (quiescin sulfhydryl oxidase 2) scored viability hit class no change; caspase hit class no change; viability robust z-score 0.5; caspase robust z-score -1; inactive.
Depletion of FOXD1 (forkhead box D1) came out at: viability hit class no change; caspase hit class no change; viability robust z-score -0.13; caspase robust z-score 1.94; inactive.
Silencing of TEX12 (testis expressed 12) gave: viability hit class no change; caspase hit class no change; viability robust z-score -0.49; caspase robust z-score 0.5; inactive.
With knock-down of ZNF587 (zinc finger protein 587), the record shows viability hit class no change; caspase hit class no change; viability robust z-score 0.55; caspase robust z-score 0.22; inactive.
Against NIM1K (NIM1 serine/threonine protein kinase), the entry reads viability hit class no change; caspase hit class no change; viability robust z-score 0.08; caspase robust z-score -0.1; inactive.
F7 (coagulation factor VII) gave viability hit class no change; caspase hit class no change; viability robust z-score -4.2; caspase robust z-score 4.39; inactive.
With knock-down of BNIP3L (BCL2 interacting protein 3 like), the screen gave viability hit class no change; caspase hit class no change; viability robust z-score 1.39; caspase robust z-score 3.06; inactive.

Targets listed so far whose target name starts with F or f (2):
FOXD1 (forkhead box D1): viability hit class = no change; caspase hit class = no change; viability robust z-score = -0.13; caspase robust z-score = 1.94; Call = inactive
F7 (coagulation factor VII): viability hit class = no change; caspase hit class = no change; viability robust z-score = -4.2; caspase robust z-score = 4.39; Call = inactive
